# Read-outs that look alike come from different tables or passages of the source. These are yes or no findings as the source states them, for the method shown. In cells and extracts the contact can be indirect. These calls come from enrichment with a bait or labelling near it, and not all partners need be listed.
# By UniProt entry, the sequences of proteins in these tests, tags left out. Where a name states a change or a piece, a line headed by the entry shows the natural chain unless it says otherwise.
# UniProt Q562E2: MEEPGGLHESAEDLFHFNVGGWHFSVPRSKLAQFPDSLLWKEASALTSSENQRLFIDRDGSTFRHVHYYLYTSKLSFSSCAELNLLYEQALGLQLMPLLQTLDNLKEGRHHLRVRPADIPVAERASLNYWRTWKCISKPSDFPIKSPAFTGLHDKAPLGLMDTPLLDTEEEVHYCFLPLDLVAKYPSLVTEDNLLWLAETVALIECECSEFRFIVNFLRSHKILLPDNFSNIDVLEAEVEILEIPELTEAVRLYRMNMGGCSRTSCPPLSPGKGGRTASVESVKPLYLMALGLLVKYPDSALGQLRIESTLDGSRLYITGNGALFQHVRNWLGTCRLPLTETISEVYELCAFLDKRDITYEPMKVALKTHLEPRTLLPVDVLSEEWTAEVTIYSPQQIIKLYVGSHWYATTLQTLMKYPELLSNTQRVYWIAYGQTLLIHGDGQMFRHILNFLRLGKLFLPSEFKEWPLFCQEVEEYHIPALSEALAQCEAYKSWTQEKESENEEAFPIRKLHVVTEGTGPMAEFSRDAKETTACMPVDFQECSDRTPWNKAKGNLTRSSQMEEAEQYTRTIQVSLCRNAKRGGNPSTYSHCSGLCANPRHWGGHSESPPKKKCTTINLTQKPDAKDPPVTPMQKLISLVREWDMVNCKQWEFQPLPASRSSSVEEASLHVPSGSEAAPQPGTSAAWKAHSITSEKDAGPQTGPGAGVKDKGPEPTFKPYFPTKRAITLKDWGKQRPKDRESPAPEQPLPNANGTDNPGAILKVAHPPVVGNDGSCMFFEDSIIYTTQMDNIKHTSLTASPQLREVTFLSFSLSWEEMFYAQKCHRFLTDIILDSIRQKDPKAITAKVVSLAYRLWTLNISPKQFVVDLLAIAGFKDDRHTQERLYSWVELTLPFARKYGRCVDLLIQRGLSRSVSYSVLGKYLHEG
# UniProt O09106: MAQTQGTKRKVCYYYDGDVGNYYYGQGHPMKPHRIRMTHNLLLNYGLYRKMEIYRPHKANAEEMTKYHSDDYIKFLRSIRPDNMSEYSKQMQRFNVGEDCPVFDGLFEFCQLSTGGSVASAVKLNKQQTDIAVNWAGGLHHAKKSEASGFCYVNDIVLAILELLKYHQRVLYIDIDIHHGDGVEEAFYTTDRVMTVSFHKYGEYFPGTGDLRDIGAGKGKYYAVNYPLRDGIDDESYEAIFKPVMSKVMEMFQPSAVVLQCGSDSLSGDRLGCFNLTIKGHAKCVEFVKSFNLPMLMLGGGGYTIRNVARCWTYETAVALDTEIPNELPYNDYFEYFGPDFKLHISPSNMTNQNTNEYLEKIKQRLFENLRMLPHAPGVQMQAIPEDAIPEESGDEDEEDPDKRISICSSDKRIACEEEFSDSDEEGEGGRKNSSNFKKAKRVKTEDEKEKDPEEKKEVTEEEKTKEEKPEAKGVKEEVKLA
# UniProt P70288: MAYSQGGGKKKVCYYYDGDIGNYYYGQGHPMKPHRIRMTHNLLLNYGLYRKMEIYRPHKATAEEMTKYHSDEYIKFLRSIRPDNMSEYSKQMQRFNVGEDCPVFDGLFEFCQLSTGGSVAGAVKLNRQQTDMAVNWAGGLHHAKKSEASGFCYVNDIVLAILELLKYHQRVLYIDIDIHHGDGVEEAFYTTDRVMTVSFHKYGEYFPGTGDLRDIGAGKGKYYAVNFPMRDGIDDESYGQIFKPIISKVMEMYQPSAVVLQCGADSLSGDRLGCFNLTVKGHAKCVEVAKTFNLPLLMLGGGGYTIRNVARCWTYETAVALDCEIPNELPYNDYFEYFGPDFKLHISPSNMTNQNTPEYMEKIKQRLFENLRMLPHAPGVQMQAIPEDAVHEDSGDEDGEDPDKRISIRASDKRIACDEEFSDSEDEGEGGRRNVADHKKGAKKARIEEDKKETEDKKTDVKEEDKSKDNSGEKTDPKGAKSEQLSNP
# T1: ZFP541 (mouse (endogenous in testis)) (UniProt Q0GGX2)
# T1 sequence: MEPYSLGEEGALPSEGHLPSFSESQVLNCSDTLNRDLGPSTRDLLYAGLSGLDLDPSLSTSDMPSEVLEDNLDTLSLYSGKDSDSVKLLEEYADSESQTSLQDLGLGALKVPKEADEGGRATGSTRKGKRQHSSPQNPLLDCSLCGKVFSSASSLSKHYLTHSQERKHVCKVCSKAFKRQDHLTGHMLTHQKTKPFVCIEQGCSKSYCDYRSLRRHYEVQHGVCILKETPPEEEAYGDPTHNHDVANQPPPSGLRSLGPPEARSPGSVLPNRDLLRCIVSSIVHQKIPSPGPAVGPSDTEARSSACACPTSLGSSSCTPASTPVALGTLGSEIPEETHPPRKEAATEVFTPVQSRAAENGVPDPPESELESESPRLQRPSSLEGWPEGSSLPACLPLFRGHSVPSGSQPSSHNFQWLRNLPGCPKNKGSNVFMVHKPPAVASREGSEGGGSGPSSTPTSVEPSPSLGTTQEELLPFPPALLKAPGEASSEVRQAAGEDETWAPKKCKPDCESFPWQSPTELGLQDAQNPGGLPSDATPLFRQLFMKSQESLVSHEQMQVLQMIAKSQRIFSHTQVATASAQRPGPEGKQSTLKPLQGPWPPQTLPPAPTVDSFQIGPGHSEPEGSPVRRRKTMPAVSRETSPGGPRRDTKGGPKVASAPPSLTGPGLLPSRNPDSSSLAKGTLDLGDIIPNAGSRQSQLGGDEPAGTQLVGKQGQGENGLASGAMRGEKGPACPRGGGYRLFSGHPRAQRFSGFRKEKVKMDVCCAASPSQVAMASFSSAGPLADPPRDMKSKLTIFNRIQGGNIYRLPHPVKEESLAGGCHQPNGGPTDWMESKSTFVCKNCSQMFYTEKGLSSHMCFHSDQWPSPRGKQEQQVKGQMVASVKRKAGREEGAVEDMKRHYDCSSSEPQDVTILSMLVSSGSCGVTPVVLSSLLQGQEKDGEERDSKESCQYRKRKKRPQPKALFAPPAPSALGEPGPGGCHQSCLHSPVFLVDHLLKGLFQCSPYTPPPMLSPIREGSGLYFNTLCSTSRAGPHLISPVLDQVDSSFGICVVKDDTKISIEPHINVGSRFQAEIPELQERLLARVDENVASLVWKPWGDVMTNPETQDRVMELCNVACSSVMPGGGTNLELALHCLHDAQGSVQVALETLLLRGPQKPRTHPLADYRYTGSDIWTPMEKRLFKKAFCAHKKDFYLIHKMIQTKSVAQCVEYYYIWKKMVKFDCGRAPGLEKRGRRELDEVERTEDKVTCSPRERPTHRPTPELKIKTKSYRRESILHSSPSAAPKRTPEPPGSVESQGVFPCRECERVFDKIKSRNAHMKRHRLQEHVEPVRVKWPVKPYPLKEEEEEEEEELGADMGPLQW
# Assays:
# Test in all cases: affinity purification with mass spectrometry
# [1] = target: T1, ZFP541 (mouse (endogenous in testis))
# [2] = target: KCTD19 (mouse (endogenous in testis)) (UniProt Q562E2)
# [3] = target: T1, ZFP541 (mouse (endogenous in testis)); remark: listed apart in the source
# [4] = target: T1, ZFP541 (mouse (endogenous in testis)); remark: listed apart in the source
# [5] = target: KCTD19 (mouse (endogenous in testis)) (UniProt Q562E2); remark: listed apart in the source
Molecule,binding [1],binding [2],binding [3],binding [4],binding [5]
HDAC1 (from UniProt O09106 1-482) (enzyme),binds,binds,binds,binds,–
HDAC2 (from UniProt P70288 1-488) (enzyme),binds,binds,binds,binds,–
KCTD19 (from UniProt Q562E2-2),binds,–,binds,binds,–
"terminal deoxynucleotidyltransferase interacting factor 1 (TDIF1) (protein, UniProt Q99LB0 1-328) MGATGDTEQPRGPGGAERGGLELGDAGAAGQPVLTNPWNIMIKHRQVQRRGRRSQMTTSFTDPAISMDLLRAVLQPSINEEIQGVFNKYMKFFQKAALNVRDNVGEEVDAEQLIQEACRSCLEQAKLLFSDGEKVIPRLAHELPGIKRGRQAEEESHRGSPIPKKRKGRPPGHVLSNDRAAAGMVWKQKSCEPIRREGPKWDPARLNESTTFVLGSRANKALGMGGTRGRIYIKHPHLFKYAADPQDKHWLAEQHHMRATGGKMAYLLIEEDIRDLAASDDYRGCLDLKLEELKSFVLPSWMVEKMRKYMETLRTENEHRAAEAPPQT",binds,–,binds,binds,binds
"ZFP541 (protein, UniProt Q0GGX2 1-1363) MEPYSLGEEGALPSEGHLPSFSESQVLNCSDTLNRDLGPSTRDLLYAGLSGLDLDPSLSTSDMPSEVLEDNLDTLSLYSGKDSDSVKLLEEYADSESQTSLQDLGLGALKVPKEADEGGRATGSTRKGKRQHSSPQNPLLDCSLCGKVFSSASSLSKHYLTHSQERKHVCKVCSKAFKRQDHLTGHMLTHQKTKPFVCIEQGCSKSYCDYRSLRRHYEVQHGVCILKETPPEEEAYGDPTHNHDVANQPPPSGLRSLGPPEARSPGSVLPNRDLLRCIVSSIVHQKIPSPGPAVGPSDTEARSSACACPTSLGSSSCTPASTPVALGTLGSEIPEETHPPRKEAATEVFTPVQSRAAENGVPDPPESELESESPRLQRPSSLEGWPEGSSLPACLPLFRGHSVPSGSQPSSHNFQWLRNLPGCPKNKGSNVFMVHKPPAVASREGSEGGGSGPSSTPTSVEPSPSLGTTQEELLPFPPALLKAPGEASSEVRQAAGEDETWAPKKCKPDCESFPWQSPTELGLQDAQNPGGLPSDATPLFRQLFMKSQESLVSHEQMQVLQMIAKSQRIFSHTQVATASAQRPGPEGKQSTLKPLQGPWPPQTLPPAPTVDSFQIGPGHSEPEGSPVRRRKTMPAVSRETSPGGPRRDTKGGPKVASAPPSLTGPGLLPSRNPDSSSLAKGTLDLGDIIPNAGSRQSQLGGDEPAGTQLVGKQGQGENGLASGAMRGEKGPACPRGGGYRLFSGHPRAQRFSGFRKEKVKMDVCCAASPSQVAMASFSSAGPLADPPRDMKSKLTIFNRIQGGNIYRLPHPVKEESLAGGCHQPNGGPTDWMESKSTFVCKNCSQMFYTEKGLSSHMCFHSDQWPSPRGKQEQQVKGQMVASVKRKAGREEGAVEDMKRHYDCSSSEPQDVTILSMLVSSGSCGVTPVVLSSLLQGQEKDGEERDSKESCQYRKRKKRPQPKALFAPPAPSALGEPGPGGCHQSCLHSPVFLVDHLLKGLFQCSPYTPPPMLSPIREGSGLYFNTLCSTSRAGPHLISPVLDQVDSSFGICVVKDDTKISIEPHINVGSRFQAEIPELQERLLARVDENVASLVWKPWGDVMTNPETQDRVMELCNVACSSVMPGGGTNLELALHCLHDAQGSVQVALETLLLRGPQKPRTHPLADYRYTGSDIWTPMEKRLFKKAFCAHKKDFYLIHKMIQTKSVAQCVEYYYIWKKMVKFDCGRAPGLEKRGRRELDEVERTEDKVTCSPRERPTHRPTPELKIKTKSYRRESILHSSPSAAPKRTPEPPGSVESQGVFPCRECERVFDKIKSRNAHMKRHRLQEHVEPVRVKWPVKPYPLKEEEEEEEEELGADMGPLQW",–,–,–,–,binds
"MIDEAS (protein, UniProt E9Q2I4 1-1089) MNLQAQSKAQSKRKRCPFGDQEPAAKEQPPPLQSPPQSLRAKEEQYGAHEGPTGVASTTQPVELSPPNNLALLNSVVYGSERTTAAMLSQQAQVSSVKWPSSVMAPGRGLERGGGGGISDSGWQQQPGQPPPHSTWNHLPLYGGPKGSPHPGVGVPPYYNHPEALKGNKPGGPQLDHYGNAVQPMVPQKVQLEVGRPQAPLNSFHAAKKPPNQTLPLQPFQLAFGHQVNRQVFRQGPQPSNPTASFPPQKQQQQQQPAALPQMQLFENYYPMHQLPSQQHQDFGLAPGGPLGQTHLAHRSMAPYPFSHNPDMNPELRKALLQDPASQPVLPQPQMAFPRRSRRLSKEGILPSNSLDGAGTQPGQEPASNLFLHHWSLPQPPPGTLGQPHSEALGFPLELRESQMLADGDRLAPNGREREPPAMGNEEVMRAGGLGDCGQMIRSGVIQSTKRRRRVSQEANLLTLAQKAVELASMQDANGSEEKRKSVLATTSRCGVEFSEPALAAKRAREESGMVPLIIPVSVPVRTVGPTEVAQVGGADEDGTGLEQYPTEHKPSVIVTRRRSTRVPGTDAAAQAEDLNVKLEGEPSMRKPKQRPRPEPLIIPTKAGTFIAPPVYSNITPYQSHLRSPVRLADHPSERSFEPPPYTPPPILSPVREGSGLYFNAIISTSNIPAPPPITPKSAHRTLLRSNSSEVTPPVLSVMGEATPVSIEPRINVGTRFQAEIPMMRDRALAAFDPHKADLVWQPWEHLESSWEKQRQVDDLLTAACSSIFPGAGTNQELALHYLHESRGDILEALNKLLLRKPLRPHNHPLATYHYTGSDQWKTAERKLFNKGIAIYKKDFFLVQKLIQTKTVAQCVEFYYTYKKQVKIGRNGTLTFGDLDIGDEKSGQEEVEVDVKTSQKFPRVPPPRRESPSEERLEPKREVTEPRKEGEEEVPDTQEKGEQEEGRERCRRAAAVKATQTLQANEAANDVLILRSHEPNAPGSAGIQTSEKPREGPGKSRRALPFTEKKKKAEAFNKTQNQENTFPCKKCGRVFYKVKSRSAHMKSHAEQEKKAAALRLKEKEAAAAAAHQQALREESGEGEKG",–,–,–,–,binds
"Transcription regulatory factor 1 (TRERF1) (protein, UniProt Q8BXJ2 1-1205) MGDQQLYKTNHVGHGGENLFYQQPPLGVHSGLGHSYGNTISGAGMDAPQASPISPHFPQDTRDGLGLPIGSKNLGQMDTSRQGGWGSHAGPGNHVQLRSNLANSNMMWGTPTQVEPADGYQYTYSQASEIRTQKLTSGVLHKLDSFTQVFANQNLRIQVNNMAQVLHTQSAVMDGASDSALRQLLSQKPVEPSASAIASRYQQVPQQPHPGFTGGLPKPALPVGQHAPQGHLYYDYQQPLAQMSMQGGQPLQAPQVLSGHMQQLQQHQYYPQPPPQQQQAGLQRISVQEMQQQQQPQQIRPSPPQQQQQLQLQQRQSSLQIPQYYQPQPMMQHLQEQQQPSMHLQPPSYHRDPHQYTPEQAHAVQLIQLGSMPQYYYQEPQQAYSHPLYPQSHLSQHQQREDGQLKTYSSDRQTPAMLSSHGDMGTSDTGVADPASSEMTRVTSTLPHQPLLSPSGIHLNNMGSQHQQPPSPSAMWPQMHLPDGRAQSGSPESSSGQTKGVFGEQFDAKNKLTCSICLKEFKSLPALNGHMRSHGGMRASPSLKQEEGEKAPPPQPQPQPQPQQPLPPPPPPPPPPQLPPEAERLTPMVMPVSVPVKLIPPKPSSQGFTNSVAATPAARDKPASSMSDDEMPVLEIPRKHPPIAAKVEEPLKNLPEKKKFRHRPEPLFIPPPPSSYTPNPTSYSGATLYQSQLRSPRILGDHLLLDPAHELPPYTPPPMLSPVRQGSGLFSNVLISGHGPGVHPQLPLTPLTPTPRVLLCRSSSIDGSNVTVTPGPGEQTVDVEPRINIGLRFQAEIPELQDVSALAQDTHRATLVWKPWPELENQALQQQVENLLNLCCSSALPGGGTNSEFALHSLFEAKGDVMATLEMLLLRKPVRLKCHPLANYHYAGSDKWTSLERKLFNKALATYSKDFIFVQKMVKSKTVAQCVEYYYTWKKIMRLGRKHRTRLAEIIDDCMTSEEEEEAEEEEEDPEEDRKSIKEEESEVAKSPEPPPAPALAPTEGPPMQAVGQQPSGNFICEMPNCGAVFSSRQALNGHARIHGGTNQVAKTRGAIPSGKQKPGGTQSGYCSVKSSPSHSTTSGETDPTTIFPCKECGKVFFKIKSRNAHMKTHRQQEEQQRQKAQKAAFAAEMAATIERTTGPVGAPELLPLDQLSLMKPVKDVDILDDDVVQQLGVMDEAEVVGTDLLLDDQDSVLLQGDTEL",–,–,–,–,binds
